Measured values taken from paper PMC9830510.
No constants are given. Whether binding was seen depends on the method and setting. In cells and extracts the contact can be indirect. Some entries that bind do so weakly or less than the wild type. For part of these data: Sequences can lack the tags named with a protein.

Chains of the proteins cited; added tags and fusions are not shown. Residues count along the entry.
UniProt O75636, residues 24-299: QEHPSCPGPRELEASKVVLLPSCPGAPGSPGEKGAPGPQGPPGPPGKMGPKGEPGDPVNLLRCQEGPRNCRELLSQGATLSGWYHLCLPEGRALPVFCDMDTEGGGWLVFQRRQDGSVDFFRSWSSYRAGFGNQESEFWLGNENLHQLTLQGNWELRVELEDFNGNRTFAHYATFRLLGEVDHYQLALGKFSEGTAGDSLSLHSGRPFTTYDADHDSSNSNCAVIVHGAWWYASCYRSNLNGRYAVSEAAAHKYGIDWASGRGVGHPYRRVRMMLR

Assays:
[1] = biological target: T1, SBDS (ribosome maturation factor), endogenous (human (endogenous in HCCLM3 and SK-Hep1)) (UniProt Q9Y3A5); experiment: co-IP; endogenous co-IP; HCCLM3 and SK-Hep1 cells transfected with His-FCN3; IP with SBDS antibody or IgG; immunoblot
T1 sequence: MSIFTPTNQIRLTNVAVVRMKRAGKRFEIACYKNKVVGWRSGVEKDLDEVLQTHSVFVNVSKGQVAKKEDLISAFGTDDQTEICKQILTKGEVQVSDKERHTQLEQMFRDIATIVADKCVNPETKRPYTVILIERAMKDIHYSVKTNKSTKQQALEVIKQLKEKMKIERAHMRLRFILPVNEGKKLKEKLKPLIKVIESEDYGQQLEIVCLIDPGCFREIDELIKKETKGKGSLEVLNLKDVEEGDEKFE

[2] = biological target: T2, DsRedMonomer-SBDS (full-length SBDS in pDsRedMonomer) (UniProt Q9Y3A5); experiment: FRET or BRET; living HCCLM3 cells co-transfected with AcGFP1-FCN3 and DsRedMonomer-SBDS; control pAcGFP1 and pDsRedMonomer; confocal microscopy, donor before and after (FRET-Efficiency= (Donor post-Donor pre)/Donor post)
T2 sequence: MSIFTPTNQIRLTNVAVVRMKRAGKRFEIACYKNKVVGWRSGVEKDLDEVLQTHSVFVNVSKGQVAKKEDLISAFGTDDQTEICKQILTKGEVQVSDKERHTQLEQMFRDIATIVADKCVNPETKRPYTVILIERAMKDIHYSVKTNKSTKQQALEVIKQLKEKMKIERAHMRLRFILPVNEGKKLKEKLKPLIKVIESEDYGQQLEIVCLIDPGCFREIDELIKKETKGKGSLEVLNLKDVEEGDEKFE

[3] = biological target: Full-length FCN3 (Ficolin-3) with a C-terminal 6x His tag (human) (UniProt O75636); experiment: co-IP; exogenous co-IP; HEK-293T co-transfected with His-FCN3 and cMyc-SBDS; IP buffer 20mM Tris-HCl pH 7.4, 1mM EDTA, 150mM NaCl, 1% NP-40; His-tag and Myc-tag antibodies, magnetic beads, overnight at 4 °C; immunoblot

How did the binding [1] turn out when “Full-length FCN3 (Ficolin-3) with a C-terminal 6x His tag (from UniProt O75636 24-299)” was run?
The binding was “binds”.

Which binding [2] does the source give for “AcGFP1-FCN3 (full-length FCN3 in pAcGFP1) (from UniProt O75636 24-299)” here?
The binding was “binds”.

B1: SBDS (ribosome maturation factor) with a C-terminal Myc tag (protein, UniProt Q9Y3A5 1-250)
chain: MSIFTPTNQIRLTNVAVVRMKRAGKRFEIACYKNKVVGWRSGVEKDLDEVLQTHSVFVNVSKGQVAKKEDLISAFGTDDQTEICKQILTKGEVQVSDKERHTQLEQMFRDIATIVADKCVNPETKRPYTVILIERAMKDIHYSVKTNKSTKQQALEVIKQLKEKMKIERAHMRLRFILPVNEGKKLKEKLKPLIKVIESEDYGQQLEIVCLIDPGCFREIDELIKKETKGKGSLEVLNLKDVEEGDEKFE
B1 was tested. Which binding [3] did it give?
The binding was “binds”.
